# Experimental data from PubChem BioAssay AID192 (DTP/NCI, 2004).
# The list shows only some results of the screen, not a fair sample: it gathers tests that were run many times, whatever their T/C, doses with no T/C, and many T/C values between a quarter and a half above the control. Other doses and runs of a compound stand elsewhere. T/C: endpoint of the treated group in % of that of the vehicle group. Some entries give survivors of the animals treated and no T/C: the source holds a T/C of zero for them, seemingly a mark for toxic or unscored doses. Some doses without a T/C left all or most animals alive at the check, yet need not have been tolerated: survival well below the control is almost never listed, so the zero probably covers shortened survival too. Counts of survivors are from the toxicity check (mostly the fifth day) where no day follows; animals may have died later. Schedule codes are those of the source, read here as Q, the interval in days (D) or hours (H), X, the number of doses. Some entries were tested several times; the values are given in rising order. For survival time, this PubChem deposit counts one and a half times the control or more as active, and values a quarter to a half above the control carry no call in these data; other NCI protocols may use other cut-offs. Marks such as (2×) give the number of equal values in this list.
# Tested on: BDF1 mice, B16 melanoma ip, median survival T/C
# Experiment: NCI In Vivo Anticancer Drug Screen. Data for tumor model B16 Melanoma (intraperitoneal) in B6D2F1 (BDF1) mice
# Conditions: T/C endpoint: median survival time, higher T/C = longer survival
# Procedure, shortened: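 Mice with transplantable tumors; drug vs vehicle groups; endpoint survival or tumor size; value = T/C.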
# [1] = dose: 25.0 mg/kg/injection, schedule: Q01DX009 (ip), vehicle: Klucel (hydroxypropylcellulose) (HPC)
# [2] = dose: 50.0 mg/kg/injection, schedule: Q01DX009 (ip), vehicle: Klucel (hydroxypropylcellulose) (HPC)
# [3] = dose: 100.0 mg/kg/injection, schedule: Q01DX009 (ip), vehicle: Klucel (hydroxypropylcellulose) (HPC)
# [4] = dose: 100.0 mg/kg/injection, schedule: Q01DX009 (ip), vehicle: saline with Tween-80
# [5] = dose: 200.0 mg/kg/injection, schedule: Q01DX009 (ip), vehicle: saline with Tween-80
# [6] = dose: 400.0 mg/kg/injection, schedule: Q01DX009 (ip), vehicle: saline with Tween-80
# [7] = dose: 25.0 mg/kg/injection, schedule: Q01DX009 (ip), vehicle: saline with Tween-80
# [8] = dose: 50.0 mg/kg/injection, schedule: Q01DX009 (ip), vehicle: saline with Tween-80
# [9] = dose: 80.0 micrograms/kg/injection, schedule: Q01DX009 (ip), vehicle: saline
smiles,measurement,setting,value
C/C=C/C(=O)OCC1CCN(C)C1 (stereo not drawn),survivor count,"dose: 400.0 mg/kg/injection, schedule: Q01DX009 (ip), vehicle: water",5 of 8
same,survivor count,"dose: 800.0 mg/kg/injection, schedule: Q01DX009 (ip), vehicle: water",0 of 8
OC(CCN1CCCCC1)(c1ccccc1)C1CC2C=CC1C2 (stereo not drawn),survivor count,"dose: 6.25 mg/kg/injection, schedule: Q01DX009 (ip), vehicle: Klucel (hydroxypropylcellulose) (HPC)",10 of 10
same,survivor count,[1],9 of 10 and 10 of 10
same,survivor count,[2],10 of 10
same,survivor count,[3],9 of 10
CCCCCCCCCCCCO,survivor count,[4],10 of 10
same,survivor count,[5],7 of 10
same,survivor count,[6],4 of 10
O=c1[nH]c(Cl)ncc1F,survivor count,"dose: 75.0 mg/kg/injection, schedule: Q01DX009 (ip), vehicle: Klucel (hydroxypropylcellulose) (HPC)",10 of 10
same,survivor count,"dose: 150.0 mg/kg/injection, schedule: Q01DX009 (ip), vehicle: Klucel (hydroxypropylcellulose) (HPC)",10 of 10
same,survivor count,"dose: 300.0 mg/kg/injection, schedule: Q01DX009 (ip), vehicle: Klucel (hydroxypropylcellulose) (HPC)",0 of 10
N#CCCSC(=S)C1CCCC1=N (stereo not drawn),survivor count,[6],6 of 10
O=C1C2CC=CCC2C(=O)N1SC(Cl)(Cl)Cl (stereo not drawn),survivor count,"dose: 6.25 mg/kg/injection, schedule: Q01DX009 (ip), vehicle: saline with Tween-80",10 of 10
same,survivor count,"dose: 12.5 mg/kg/injection, schedule: Q01DX009 (ip), vehicle: saline with Tween-80",10 of 10
same,survivor count,[7],9 of 10
CCC[CH2][Sn]1([CH2]CCC)[O]OC(c2ccc(OC)cc2)[O]1 (stereo not drawn),survivor count,"dose: 6.25 mg/kg/injection, schedule: Q01DX009 (sc), vehicle: olive oil, sesame oil, peanut oil",9 of 9
same,survivor count,"dose: 12.5 mg/kg/injection, schedule: Q01DX009 (sc), vehicle: olive oil, sesame oil, peanut oil",9 of 10
same,survivor count,"dose: 25.0 mg/kg/injection, schedule: Q01DX009 (sc), vehicle: olive oil, sesame oil, peanut oil",4 of 10
c1ccc2c(c1)nnn1c3cnccc3nc21,T/C,"dose: 1.56 mg/kg/injection, schedule: Q01DX009 (ip), vehicle: saline with Tween-80",138 % of control
same,survivor count,[7],5 of 10 and 8 of 10
same,survivor count,[8],0 of 10
Nc1ccccc1.[C-]#[O+].[C-]#[O+].[C-]#[O+].[C-]#[O+].[C-]#[O+].[Cr],survivor count,"dose: 20.0 mg/kg/injection, schedule: Q01DX009 (ip), vehicle: saline",1 of 10
Cc1cc2c(c3oc(C4(C)OC4C4OC4C)cc(=O)c13)C(=O)c1c(O)c(C3CC(C)(N(C)C)C(O)C(C)O3)cc(C3CC(N(C)C)C(O)C(C)O3)c1C2=O (stereo not drawn),T/C,"dose: 0.5 micrograms/kg/injection, schedule: Q01DX009 (ip), vehicle: Klucel (hydroxypropylcellulose) (HPC)",131 % of control
same,T/C,"dose: 1.0 micrograms/kg/injection, schedule: Q01DX009 (ip), vehicle: Klucel (hydroxypropylcellulose) (HPC)",130 % of control (2×)
same,T/C,"dose: 2.0 micrograms/kg/injection, schedule: Q01DX009 (ip), vehicle: Klucel (hydroxypropylcellulose) (HPC)",130 and 136 % of control
same,T/C,"dose: 2.5 micrograms/kg/injection, schedule: Q01DX009 (ip), vehicle: Klucel (hydroxypropylcellulose) (HPC)",133 % of control
same,T/C,"dose: 4.0 micrograms/kg/injection, schedule: Q01DX009 (ip), vehicle: Klucel (hydroxypropylcellulose) (HPC)",145 % of control
same,survivor count,"dose: 4.0 micrograms/kg/injection, schedule: Q01DX009 (ip), vehicle: saline",10 of 10
same,T/C,"dose: 5.0 micrograms/kg/injection, schedule: Q01DX009 (ip), vehicle: clinical formulation",126 % of control
same,survivor count,"dose: 8.0 micrograms/kg/injection, schedule: Q01DX009 (ip), vehicle: saline",10 of 10
same,survivor count,"dose: 10.0 micrograms/kg/injection, schedule: Q01DX009 (ip), vehicle: Klucel (hydroxypropylcellulose) (HPC)",10 of 10
same,survivor count,"dose: 16.0 micrograms/kg/injection, schedule: Q01DX009 (ip), vehicle: saline",10 of 10
same,survivor count,"dose: 20.0 micrograms/kg/injection, schedule: Q01DX009 (ip), vehicle: Klucel (hydroxypropylcellulose) (HPC)",10 of 10
same,survivor count,"dose: 20.0 micrograms/kg/injection, schedule: Q01DX009 (ip), vehicle: clinical formulation",10 of 10
same,T/C,"dose: 20.0 micrograms/kg/injection, schedule: Q01DX009 (ip), vehicle: saline",128 % of control
same,survivor count,"dose: 30.0 micrograms/kg/injection, schedule: Q01DX009 (ip), vehicle: saline",10 of 10
same,survivor count,"dose: 40.0 micrograms/kg/injection, schedule: Q01DX009 (ip), vehicle: clinical formulation",10 of 10
same,survivor count,"dose: 40.0 micrograms/kg/injection, schedule: Q01DX009 (ip), vehicle: saline",6 of 6
same,survivor count,"dose: 80.0 micrograms/kg/injection, schedule: Q01DX009 (ip), vehicle: clinical formulation",9 of 10
same,T/C,[9],133 % of control
same,survivor count,[9],6 of 6
same,survivor count,"dose: 160.0 micrograms/kg/injection, schedule: Q01DX009 (ip), vehicle: clinical formulation",3 of 10
same,survivor count,"dose: 160.0 micrograms/kg/injection, schedule: Q01DX009 (ip), vehicle: saline",10 of 10
C/C=C/CNc1ccccc1,survivor count,[5],6 of 10
CN(C)CCCN=Cc1ccc(O)cc1O.CN(C)CCCN=Cc1ccc(O)cc1O.[Ni+2],survivor count,"dose: 50.0 mg/kg/injection, schedule: Q04DX003 (ip), vehicle: saline with Tween-80",10 of 10
C[CH2][Pb]([CH2]C)([CH2]C)[O][As](=O)(O)c1ccc(N)cc1,survivor count,"dose: 6.0 mg/kg/injection, schedule: Q01DX009 (ip), vehicle: saline",8 of 10
S=c1sc2ccccc2n1CN(c1ccccc1)c1ccc2ccccc2c1,survivor count,"dose: 200.0 mg/kg/injection, schedule: Q04DX003 (ip), vehicle: saline with Tween-80",10 of 10
same,survivor count,"dose: 400.0 mg/kg/injection, schedule: Q04DX003 (ip), vehicle: saline with Tween-80",10 of 10
C=C(NC(=O)C(=C)NC(=O)c1csc(C2=NC3c4csc(n4)C4NC(=O)c5csc(n5)C(C(C)(O)C(C)O)NC(=O)C5CSC(=N5)/C(=C/C)NC(=O)C(C(C)O)NC(=O)c5csc(n5)C3(CC2)NC(=O)C(C)NC(=O)C(=C)NC(=O)C(C)NC(=O)C(C(C)CC)NC2C=Cc3c(C(C)O)cc(nc3C2O)C(=O)OC4C)n1)C(N)=O (stereo not drawn),survivor count,"dose: 400.0 mg/kg/injection, schedule: Q01DX009 (ip), vehicle: Klucel (hydroxypropylcellulose) (HPC)",10 of 10
CC(C)=CCN1CCC2(C)c3cc(O)ccc3CC1C2C (stereo not drawn),T/C,"dose: 3.12 mg/kg/injection, schedule: Q01DX009 (ip), vehicle: Klucel (hydroxypropylcellulose) (HPC)",127 % of control
same,survivor count,"dose: 12.5 mg/kg/injection, schedule: Q01DX009 (ip), vehicle: Klucel (hydroxypropylcellulose) (HPC)",9 of 10
same,survivor count,[1],10 of 10
same,survivor count,[2],10 of 10
same,survivor count,[3],10 of 10
same,survivor count,"dose: 200.0 mg/kg/injection, schedule: Q01DX009 (ip), vehicle: Klucel (hydroxypropylcellulose) (HPC)",5 of 10
O=C1NC(=O)C(Cc2ccccc2)(c2ccccc2)N1 (stereo not drawn),survivor count,[5],10 of 10
[I][Ga]([I])[I],survivor count,"dose: 50.0 mg/kg/injection, schedule: Q01DX009 (ip), vehicle: saline",10 of 10
same,survivor count,"dose: 100.0 mg/kg/injection, schedule: Q01DX009 (ip), vehicle: saline",10 of 10
COc1cc(NS(C)(=O)=O)ccc1Nc1c2ccc([N+](=O)[O-])cc2nc2c(C)c(C)ccc12,survivor count,[8],6 of 6
same,survivor count,[4],5 of 6
same,survivor count,[5],3 of 6
same,survivor count,[6],0 of 6
ClC1=C(Cl)C(Cl)=C(Cl)C1=Cc1ccccc1,survivor count,[8],0 of 10
COc1ccc(N=O)c(O)c1,survivor count,"dose: 200.0 mg/kg/injection, schedule: Q01DX009 (ip), vehicle: saline",5 of 6
CCCCCCCCCCCCCCCCCC(=O)[O][Hg][c]1ccccc1,survivor count,[7],4 of 6
c1ccc(-c2csc3c4ccccc4c4ccccc4[n+]23)cc1,survivor count,"dose: 4.0 mg/kg/injection, schedule: Q01DX009 (ip), vehicle: saline with Tween-80",3 of 6
same,survivor count,"dose: 8.0 mg/kg/injection, schedule: Q01DX009 (ip), vehicle: saline with Tween-80",0 of 6
